Part of at least one peptide drawing is inferred or uncertain, most often the ends. No end group written: not given here.
Test system: human HCT116 cell line
Assay: MTT colorimetry, combined effects of peptide and cisplatin on cancer cells
Format: cell-based
Settings: mixture with cisplatin, gradient 0-90 μmol/L, FIG. 3-10

Row | Sequence | inhibition effect on HCT-116 cells of cisplatin plus peptide versus cisplatin alone
1 | IVHNGFRRGWMWAE [SEQ ID NO.3, Ile Val His Asn Gly Phe Arg Arg Gly Trp Met Trp Ala Glu] | stronger than using cisplatin alone
2 | IVHNGFRRGWMWGG [SEQ ID NO.2, Ile Val His Asn Gly Phe Arg Arg Gly Trp Met Trp Gly Gly] | stronger than using cisplatin alone
3 | IVHNGFRRGWMWVE [SEQ ID NO.4, Ile Val His Asn Gly Phe Arg Arg Gly Trp Met Trp Val Glu] | stronger than the separate use of cisplatin
4 | MFIVHNGFRRGEMWAE [SEQ ID NO.9, Met Phe Ile Val His Asn Gly Phe Arg Arg Gly Glu Met Trp Ala Glu] | stronger than the separate use of cisplatin

Source: patent US9328141B2, “Polypeptides for the treatment or prevention of cancer and uses thereof” (WUHAN KATYGEN PHARMACEUTICALS, INC., priority 2010, dated 2016)
